Results from article PMC7157520.
Substitutions are numbered along the chain they refer to. Results are given in words; binding and its absence hold for the method and conditions named. Binding seen in cells or lysates may run through a third protein. Binding can be weak; no strength is given. Where a sequence is shown, tags or fusion partners need not be part of it.

Molecular target: FLAG-PpgA (L. pneumophila strain Philadelphia-1) (UniProt Q5ZTD8)
Assay: co-IP

B1: RNA1-Strep (protein, UniProt P11745 1-407)
chain: MATLHFVPQHEEEQVYSISGKALKLTTSDDIKPYLEELAALKTCTKLDLSGNTIGTEASEALAKCIAENTQVRESLVEVNFADLYTSRLVDEVVDSLKFLLPVLLKCPHLEIVNLSDNAFGLRTIELLEDYIAHAVNIKHLILSNNGMGPFAGERIGKALFHLAQNKKAASKPFLETFICGRNRLENGSAVYLALGLKSHSEGLKVVKLYQNGIRPKGVATLIHYGLQYLKNLEILDLQDNTFTKHASLILAKALPTWKDSLFELNLNDCLLKTAGSDEVFKVFTEVKFPNLHVLKFEYNEMAQETIEVSFLPAMEKGNLPELEKLEINGNRLDEDSDALDLLQSKFDDLEVDDFEEVDSEDEEGEDEEDEDEDEKLEEIETERLEKELLEVQVDDLAERLAETEIK
With B1 the binding was “binds”.

B2: Strep-tagged RNA1-1 (protein, UniProt P11745 1-407)
chain: B1 chain with S17F, A194V
With B2 the binding was “no binding”.
